The name of at least one read-out is uncertain.
Tested on: C2C12 myoblasts
Test: Cell mixing of 10T1/2 fibroblasts with differentiating C2C12 myoblasts
Type: cell-based, mouse
Conditions: 10T1/2 fibroblasts mixed with Minion^KD C2C12 myoblasts, 3 days in DM
Source text: Differentiating myoblasts and myotubes are marked by MHC. 10T1/2 fibroblasts were infected with retrovirus expressing GFP and proteins of interest (left, NanoLuc control; middle, mouse Myomaker; right, mouse Minion). DAPI marks nuclei. […] White arrows indicate MHC-positive myotubes that are not fused to fibroblasts. n=2 (eight technical replicates each). 0.7 mm×0.7 mm fields are shown. […] 0.7 mm×0.7 mm fields at ×20 magnification are shown. Control and Minion^KD myoblasts were used. Differentiating myoblasts and myotubes are marked by MHC. 10T1/2 fibroblasts expressing Myomaker were labelled with CellTrace Violet dye before mixing. […]
Cell labeling was performed according to manufacturer's instructions with slight modifications. […] After the last wash, the cells were counted and diluted to the concentration needed for the final mixing experiment in a 384-well or 24-well plate, and were incubated at 37° C. for 30 min. […]
C3H 10T1/2 fibroblasts were infected with retroviruses encoding GFP and either control, Myomaker or Minion; GFP-positive fibroblasts were then mixed with wild-type C2C12 myoblasts and kept in differentiation medium for 3-4 days. Differentiating myoblasts and myotubes were marked by MHC expression, and fusion of GFP-positive fibroblasts to myotubes was readily detected when Myomaker, but not Minion or control, was expressed (FIG. 28A).

B1: Myomaker: muscle-specific transmembrane protein; mouse tmem8c CDS expressed from retroviral vector (protein)
chain: MGTVVAKLLLPTLSSLAFLPTVSIATKRRFYMEAMVYLFTMFFVAFSHACDGPGLSVLCFMRRDILEYFSIYGTALSMWVSLMALADFDEPQRSTFTMLGVLTIAVRTFHDRWGYGVYSGPIGTATLIIAVKWLKKMKEKKGLYPDKSIYTQQIGPGLCFGALALMLRFFFEEWDYTYVHSFYHCALAMSFVLLLPKVNKKAGNAGAPAKLTFSTLCCTCV
B1 was tested, and the “fusion of fibroblasts expressing the protein to differentiating Minion^KD myoblasts” value was “failed to fuse”.

— patent publication US11339209B2, “Compositions, methods, and therapeutic uses related to fusogenic protein minion” (NOVARTIS AG, priority 2016, dated 2022)
